According to patent publication US9770451B2, “Composition including ATM inhibitor for reducing cellular senescence and use of the composition” (Samsung Electronics Co., Ltd., priority 2014, dated 2017):
For at least one compound, name, drawing or mass did not settle the structure.

Legend:
Type in all cases: cell-based, human
[1] = tested on: senescent myoblasts (passage 11); assay: Lipofuscin autofluorescence (FACS); conditions: KU-60019 0.5 μM, 4 weeks
Procedure: In addition, the amounts of lipofuscin in the cells cultured as described above were measured. The senescent myoblast (passage 11) that became senescent in the presence of KU-60019 (0.5 μM) were cultured in a CO2 incubator at a temperature of 37° C. for 4 weeks. The medium was replaced by a fresh medium containing KU-60019 (0.5 μM), once every 4 days. Lipofuscin is characterized by having autofluorescence capability, and in this regard, the cultured cells were irradiated with a wavelength of 488 nm by using a FACSCaliber (Beckton Dickinson), and then, measured with radiation emitted from a wavelength of 520 nm. The results were analyzed using Cell Quest 3.2 software (Beckton Dickinson). FIG. 17 is a graph showing lipofuscin measured in the cells that were cultured in the presence of KU-60019.
In addition, the amounts of lipofuscin in the cells cultured as described above were measured. […] Lipofuscin is characterized by having autofluorescence capability, and in this regard, the cultured cells were irradiated with a wavelength of 488 nm by using a FACSCaliber (Beckton Dickinson), and then, measured with radiation emitted from a wavelength of 520 nm. The results were analyzed using Cell Quest 3.2 software (Beckton Dickinson). FIG. 23 is a graph showing lipofuscin measured in the cells that were cultured in the presence of CP-466722.

[2] = tested on: senescent fibroblasts (passage 37); assay: Cell number by SYBR green I fluorescence; conditions: 0.5 μM, cultured 16 days, n=12, p<0.05
[3] = tested on: senescent myoblasts (passage 11); assay: Morphological change by microscopy; conditions: KU-60019 0.5 μM, 4 weeks
Procedure: A human myoblast cell line (Human Skeletal Muscle Myoblasts, Lonza CC-2580 LOT:0000387550) was inoculated into a plate (Greiner Bio One, 658950), which was coated with Collagen Type I, by using an SkBM™-2 Basal Medium (Lonza CC-3246) containing SkGM™-2 SingleQuots™ Kit (Lonza CC-3244), and then, cultured in a 5% CO2 incubator at a temperature of 37° C. When the cells were grown to about 85% confluency in the plate, the cells were subjected to subculture. The early subculture was carried out at a split ratio of 1:4, and the late subculture was carried out at a split ratio of 1:2. When the cell doubling time was 14 days, the cells were considered to be senescent […] (passages 10 to 12).
The senescent cells were inoculated into each well of a Collagen Type I-coated 6-well plate (Greiner Bio One, 657950) at a concentration of 2,000 cells/well, and then, the senescent myoblasts ([…]) in a CO2 incubator at a temperature of 37° C. for 4 weeks. The medium was replaced by a fresh medium containing KU-60019 (0.5 μM), once every 4 days. In addition, as a negative control group, the cells were cultured under the same conditions as described above, except that a medium used herein contained DMSO (0.05 (v/v) %).
In FIG. 16, the myoblasts were cultured in the presence of the ATM-kinase inhibitor KU-60019 (0.5 μM), and then, the cell shapes were photographed using a microscope. […]

## C[C@@H]1CN(CC(=O)Nc2ccc3c(c2)Cc2cccc(-c4cc(=O)cc(N5CCOCC5)o4)c2S3)C[C@H](C)O1 [KU-60019, 2-((2S,6R)-2,6-dimethylmorpholino)-N-(5-(6-morpholino-4-oxo-4H-pyran-2-yl)-9H-thioxanthen-2-yl)acetamide]
[1]
  amount of lipofuscin vs DMSO control: significantly decreased
[2]
  number of cells compared to a control group: significantly increased
[3]
  cell number and morphology vs DMSO control: exist in a great number in the presence of KU-60019 and show a spindle form
